The list shows only some results of the screen, not a fair sample: it is rich in T/C values a quarter to a half above the control, in often repeated tests (any T/C) and in doses without a T/C. Further doses and runs are listed elsewhere. T/C: endpoint of the treated group in % of that of the vehicle group. Some doses have a count of surviving animals in place of a T/C: the source holds a T/C of zero for them, seemingly a mark for toxic or unscored doses. Some survivor counts are full or nearly so, which does not show that the dose was tolerated: the source hardly ever lists a survival T/C far under the control, and the zero likely stands for such cases as well. Counts of survivors are from the toxicity check (mostly the fifth day) where no day follows; animals may have died later. Schedule codes are those of the source, read here as Q, the interval in days (D) or hours (H), X, the number of doses. Some doses were run more than once; the values are given in rising order. Additions like (4×) say how often a value occurs here. Where survival is the endpoint, this PubChem deposit counts one and a half times the control or more as active, and values a quarter to a half above the control carry no call in these data; other NCI protocols may use other cut-offs. Some T/C values carry the count of animals alive at the toxicity check (mostly the fifth day); without a count, all were alive then. Some schedule codes hold Z or #, which are not explained here.
Test system: P388 leukemia ip, CD2F1 mice, survival T/C
Assay: NCI In Vivo Anticancer Drug Screen. Data for tumor model P388 Leukemia (intraperitoneal) in CD2F1 (CDF1) mice
Conditions: T/C endpoint: median survival time, higher T/C = longer survival
[1] = dose: 64.0 mg/kg/injection, schedule: Q04DX003 (ip), vehicle: saline

Q: Which results are given for `COc1cccc2c1C(=O)c1c(O)c3c(c(O)c1C2=O)C[C@@](O)(C(=O)CO)C[C@@H]3OC1CC(N)C(O)C(C)O1` (some centres not stated)?
A: T/C (dose: 16.0 mg/kg/injection, schedule: Q01DX001 (ip), vehicle: saline, evaluated on day 60): 151 % of control; T/C (dose: 16.0 mg/kg/injection, schedule: Q04DX003 (ip), vehicle: saline, evaluated on day 5): 74 and 83 % of control; T/C (dose: 16.0 mg/kg/injection, schedule: Q04DX003 (ip), vehicle: saline, evaluated on day 30): 115 (2×), 118 [5 of 6 alive], 127, 130, 131, 138, 140, 153, 163, 165, 172, 179, 180 (2×), 200, 201, 209 % of control; T/C (dose: 16.0 mg/kg/injection, schedule: Q04DX003 (ip), vehicle: water, evaluated on day 30, list 1 of 2): 93, 95 [4 of 6 alive], 100, 101 [5 of 6 alive], 108, 110 [5 of 6 alive], 113, 117, 119, 121 (2×), 123, 126, 127, 130, 131, 138, 139, 141, 144, 145, 151, 153, 157, 169, 173, 175, 180, 185, 194, 208, 227, 233 % of control; T/C (dose: 16.0 mg/kg/injection, schedule: Q04DX003 (ip), vehicle: water, evaluated on day 30, list 2 of 2): 93, 95, 96, 99, 100, 106, 109, 111, 114, 117, 121 (2×), 122, 124, 126, 129, 130, 133, 139, 140, 144, 145, 149, 151, 155, 161, 169, 174, 177, 185, 193, 200, 215, 228 % of control; T/C (dose: 16.0 mg/kg/injection, schedule: Q04DX003 (ip), vehicle: water, evaluated on day 35): 100, 122, 125, 135, 136, 139, 140, 152 (2×), 155 (2×), 163, 219, 267 % of control; T/C (dose: 16.0 mg/kg/injection, schedule: Q04DX003 (ip), vehicle: water, evaluated on day 40): 94, 108, 152, 155, 188 % of control; T/C (dose: 16.0 mg/kg/injection, schedule: Q04DX003 (ip), vehicle: water, evaluated on day 45): 92 [2 of 3 alive], 97, 99, 107, 108 (2×), 109, 110 (3×), 112, 113, 114 (2×), 116 (2×), 117 [5 of 6 alive], 119 (3×), 120, 120 [5 of 6 alive], 121 (2×), 124, 127 (2×), 128 (2×), 132, 134, 135, 138 (2×), 142, 144, 145, 152, 153, 154, 178, 198, 202, 248, 267 % of control; T/C (dose: 16.0 mg/kg/injection, schedule: Q04DX003 (ip), vehicle: water, evaluated on day 50): 111, 117, 121, 152, 166 % of control; T/C (dose: 16.0 mg/kg/injection, schedule: Q04DX003 (ip), vehicle: water, evaluated on day 60): 112 and 212 % of control; survivor count (dose: 16.0 mg/kg/injection, schedule: Q04DX003 (ip), vehicle: water): 3 of 6, 5 of 6, 6 of 6 (2×), 6 of 6 on day 9; T/C (dose: 16.0 mg/kg/injection, schedule: Q## X001 (ip), vehicle: saline): 93, 96, 138, 183 (2×), 203, 212 % of control; survivor count (dose: 18.0 mg/kg/injection, schedule: Q04DX003 (ip), vehicle: saline): 8 of 8; T/C (dose: 20.0 mg/kg/injection, schedule: Q01DX001 (ip), vehicle: saline, evaluated on day 6): 75 [4 of 5 alive] and 86 % of control; T/C (dose: 20.0 mg/kg/injection, schedule: Q01DX001 (ip), vehicle: saline, evaluated on day 7): 95 % of control [2 of 6 alive]; T/C (dose: 20.0 mg/kg/injection, schedule: Q01DX001 (ip), vehicle: saline, evaluated on day 11): 185 % of control; T/C (dose: 20.0 mg/kg/injection, schedule: Q01DX001 (ip), vehicle: saline, evaluated on day 44): 323 % of control; T/C (dose: 20.0 mg/kg/injection, schedule: Q01DX001 (ip), vehicle: saline, evaluated on day 60): 188, 219 [9 of 10 alive], 504 % of control; survivor count (dose: 20.0 mg/kg/injection, schedule: Q01DX001 (ip), vehicle: saline): 6 of 10 and 9 of 10; T/C (dose: 20.0 mg/kg/injection, schedule: Q01DX001 (ip), vehicle: water, evaluated on day 5): 202 % of control; T/C (dose: 20.0 mg/kg/injection, schedule: Q01DX001 (ip), vehicle: water, evaluated on day 45): 142 and 266 % of control [5 of 6 alive]; survivor count (dose: 20.0 mg/kg/injection, schedule: Q01DX001 (ip), vehicle: water): 4 of 6, 5 of 6, 6 of 6; T/C (dose: 20.0 mg/kg/injection, schedule: Q04DX003 (ip), vehicle: water): 132 % of control; T/C (dose: 22.5 mg/kg/injection, schedule: Q01DX001 (ip), vehicle: saline): 134 % of control [8 of 9 alive]; T/C (dose: 24.0 mg/kg/injection, schedule: Q04DX003 (ip), vehicle: saline): 109 [survivors not given], 116, 126 [survivors not given], 127 % of control; survivor count (dose: 25.0 mg/kg/injection, schedule: Q01DX009 (ip), vehicle: water): 0 of 6; survivor count (dose: 27.0 mg/kg/injection, schedule: Q04DX003 (ip), vehicle: saline): 6 of 8; survivor count (dose: 30.0 mg/kg/injection, schedule: Q01DX001 (ip), vehicle: saline): 6 of 6; survivor count (dose: 32.0 mg/kg/injection, schedule: Q01DX001 (ip), vehicle: DMSO): 8 of 10; survivor count (dose: 32.0 mg/kg/injection, schedule: Q01DX001 (ip), vehicle: other): 1 of 10; T/C (dose: 32.0 mg/kg/injection, schedule: Q01DX001 (ip), vehicle: saline, evaluated on day 3): 40 % of control [8 of 9 alive]; T/C (dose: 32.0 mg/kg/injection, schedule: Q01DX001 (ip), vehicle: saline, evaluated on day 5): 85 % of control; T/C (dose: 32.0 mg/kg/injection, schedule: Q01DX001 (ip), vehicle: saline, evaluated on day 7): 71 [2 of 2 alive] and 80 % of control [2 of 4 alive]; T/C (dose: 32.0 mg/kg/injection, schedule: Q01DX001 (ip), vehicle: saline, evaluated on day 30): 238 % of control [3 of 6 alive]; T/C (dose: 32.0 mg/kg/injection, schedule: Q01DX001 (ip), vehicle: saline, evaluated on day 45): 207 % of control; T/C (dose: 32.0 mg/kg/injection, schedule: Q01DX001 (ip), vehicle: saline, evaluated on day 60): 181 % of control; survivor count (dose: 32.0 mg/kg/injection, schedule: Q01DX001 (ip), vehicle: saline): 5 of 10, 8 of 10, 6 of 6; survivor count (dose: 32.0 mg/kg/injection, schedule: Q01DX001 (iv), vehicle: saline): 5 of 6; T/C (dose: 32.0 mg/kg/injection, schedule: Q04DX003 (ip), vehicle: saline, evaluated on day 5): 52 and 56 % of control; T/C (dose: 32.0 mg/kg/injection, schedule: Q04DX003 (ip), vehicle: saline, evaluated on day 30): 91, 100 [5 of 6 alive], 106, 108 [5 of 6 alive on day 9], 137, 149 % of control; survivor count (dose: 32.0 mg/kg/injection, schedule: Q04DX003 (ip), vehicle: saline): 4 of 6; survivor count (dose: 40.5 mg/kg/injection, schedule: Q04DX003 (ip), vehicle: saline): 4 of 8; survivor count (dose: 55.6 mg/kg/injection, schedule: Q01DX001 (oral), vehicle: saline): 6 of 10; survivor count (dose: 64.0 mg/kg/injection, schedule: Q01DX001 (ip), vehicle: DMSO): 0 of 10; survivor count (dose: 64.0 mg/kg/injection, schedule: Q01DX001 (ip), vehicle: other): 0 of 10; survivor count (dose: 64.0 mg/kg/injection, schedule: Q01DX001 (ip), vehicle: saline): 1 of 10 and 2 of 10; T/C [1]: 87 [2 of 6 alive], 91 [2 of 6 alive], 97 % of control [5 of 6 alive on day 9]; survivor count [1]: 3 of 6 and 6 of 6; survivor count (dose: 128.0 mg/kg/injection, schedule: Q01DX001 (ip), vehicle: DMSO): 0 of 10; survivor count (dose: 128.0 mg/kg/injection, schedule: Q01DX001 (ip), vehicle: other): 0 of 10; survivor count (dose: 128.0 mg/kg/injection, schedule: Q01DX001 (ip), vehicle: saline): 0 of 10 (2×); survivor count (dose: 128.0 mg/kg/injection, schedule: Q04DX003 (ip), vehicle: saline): 6 of 6

From PubChem BioAssay AID330 (DTP/NCI, 2004)
